No constants are given. Whether binding was seen depends on the method and setting. In cells and extracts the contact can be indirect. Some entries that bind do so weakly or less than the wild type.
Target: Mtf1 (metal-responsive transcription factor) (mouse (endogenous in C2C12)) (UniProt Q07243)
Experiment: co-IP

The chains behind the UniProt entries cited, without tags or fusion partners.
UniProt Q07243: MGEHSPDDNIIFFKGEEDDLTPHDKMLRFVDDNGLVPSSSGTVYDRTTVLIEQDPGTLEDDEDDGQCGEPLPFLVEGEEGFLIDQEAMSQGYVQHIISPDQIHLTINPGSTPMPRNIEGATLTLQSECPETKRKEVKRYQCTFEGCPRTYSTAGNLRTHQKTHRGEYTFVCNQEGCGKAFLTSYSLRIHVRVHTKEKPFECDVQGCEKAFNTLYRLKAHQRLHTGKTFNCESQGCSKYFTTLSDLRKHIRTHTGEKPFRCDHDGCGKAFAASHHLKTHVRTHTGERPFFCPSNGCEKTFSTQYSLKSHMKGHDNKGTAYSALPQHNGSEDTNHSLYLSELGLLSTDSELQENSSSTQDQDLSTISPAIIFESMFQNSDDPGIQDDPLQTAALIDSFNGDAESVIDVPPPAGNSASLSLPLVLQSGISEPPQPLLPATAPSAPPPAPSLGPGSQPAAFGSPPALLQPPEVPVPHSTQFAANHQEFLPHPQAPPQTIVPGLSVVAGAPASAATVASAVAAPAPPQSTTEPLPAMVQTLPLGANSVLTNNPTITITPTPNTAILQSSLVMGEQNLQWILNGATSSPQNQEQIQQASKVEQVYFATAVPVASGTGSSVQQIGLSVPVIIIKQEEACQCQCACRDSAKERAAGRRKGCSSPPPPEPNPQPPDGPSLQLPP
UniProt Q8BSQ9: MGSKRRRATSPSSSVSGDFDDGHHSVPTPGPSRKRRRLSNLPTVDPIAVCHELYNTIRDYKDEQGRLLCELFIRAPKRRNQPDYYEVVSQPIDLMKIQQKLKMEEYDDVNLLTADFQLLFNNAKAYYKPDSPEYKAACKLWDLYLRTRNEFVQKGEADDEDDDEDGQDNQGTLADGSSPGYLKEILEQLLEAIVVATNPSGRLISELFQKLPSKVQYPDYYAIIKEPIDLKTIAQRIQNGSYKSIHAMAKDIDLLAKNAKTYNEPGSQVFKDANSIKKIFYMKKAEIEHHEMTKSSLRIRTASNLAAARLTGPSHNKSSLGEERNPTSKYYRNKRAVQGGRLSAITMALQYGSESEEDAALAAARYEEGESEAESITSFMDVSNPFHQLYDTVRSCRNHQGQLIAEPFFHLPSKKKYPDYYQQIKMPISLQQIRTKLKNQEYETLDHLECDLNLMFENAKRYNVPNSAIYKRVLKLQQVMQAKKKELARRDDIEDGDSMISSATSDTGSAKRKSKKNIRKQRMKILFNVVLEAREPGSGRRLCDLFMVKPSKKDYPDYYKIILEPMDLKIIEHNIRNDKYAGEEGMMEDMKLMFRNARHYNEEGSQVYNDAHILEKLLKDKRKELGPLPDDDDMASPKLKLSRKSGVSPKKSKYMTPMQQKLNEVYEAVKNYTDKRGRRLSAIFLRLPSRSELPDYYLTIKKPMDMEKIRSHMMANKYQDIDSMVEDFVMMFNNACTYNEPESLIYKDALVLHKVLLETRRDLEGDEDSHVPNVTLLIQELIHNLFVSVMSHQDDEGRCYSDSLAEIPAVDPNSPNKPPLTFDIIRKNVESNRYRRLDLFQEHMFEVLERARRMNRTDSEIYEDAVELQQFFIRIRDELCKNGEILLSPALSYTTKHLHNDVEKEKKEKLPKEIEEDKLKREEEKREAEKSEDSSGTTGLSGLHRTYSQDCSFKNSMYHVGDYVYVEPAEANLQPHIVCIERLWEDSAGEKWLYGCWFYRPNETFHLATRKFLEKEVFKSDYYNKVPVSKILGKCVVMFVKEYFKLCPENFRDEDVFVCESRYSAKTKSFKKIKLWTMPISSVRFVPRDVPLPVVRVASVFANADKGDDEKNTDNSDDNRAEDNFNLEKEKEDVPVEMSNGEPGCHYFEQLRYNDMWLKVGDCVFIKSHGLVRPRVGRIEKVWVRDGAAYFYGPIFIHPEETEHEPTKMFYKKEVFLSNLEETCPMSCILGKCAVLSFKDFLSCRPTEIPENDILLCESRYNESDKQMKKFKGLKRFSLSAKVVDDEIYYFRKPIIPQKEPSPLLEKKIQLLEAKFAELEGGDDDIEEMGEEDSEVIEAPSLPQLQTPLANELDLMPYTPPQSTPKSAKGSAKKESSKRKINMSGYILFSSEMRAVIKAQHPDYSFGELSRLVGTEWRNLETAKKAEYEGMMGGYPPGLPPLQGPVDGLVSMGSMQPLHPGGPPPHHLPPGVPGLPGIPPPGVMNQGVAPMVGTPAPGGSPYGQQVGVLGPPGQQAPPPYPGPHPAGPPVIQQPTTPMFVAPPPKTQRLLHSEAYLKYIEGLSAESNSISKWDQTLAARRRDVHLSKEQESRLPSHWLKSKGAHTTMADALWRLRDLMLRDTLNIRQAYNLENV

**Q.** For “Baf180 (PBAF-specific SWI/SNF subunit) (from UniProt Q8BSQ9 1-1634)”, which binding is on record?
**A.** Its binding is “binds”.

Reference: publication doi:10.1101/2025.04.12.648552
